PubChem BioAssay AID1224830 | NIAID – 2016

- Screen: 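Regulators of TLR4 signalling towards TNF-alpha in macrophage-like cells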 (primary screen)
- System: human THP-1 monocytic leukaemia cells, TNF dual-luciferase reporter clone, PMA-differentiated to macrophage-like cells
- Reagent: siRNA pool against human genes, 50 nM
- Time to read-out: LPS for 4 h, given about 3 days after siRNA transfection
- Conditions: bacterial LPS (TLR4 ligand), 10 ng/ml
- Read-out: 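TNF firefly reporter luminescence divided by renilla, normalised to the plate median, then turned into a robust z-score for each replicate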
- Reading the numbers: TNF reporter robust z-score: higher = stronger TNF reporter response to LPS
- Rule for the call: 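a well is active when its z-score exceeds 2.8 or falls below -1.5; control wells carry no call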
This is a random part of about 18,000 deposited reagents. About 2,900 of them (16%) were called active. 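Calls are made per well; low scores hint the gene aids the LPS response, high scores that it dampens it.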 Repeated entries: four replicate wells of each siRNA pool.

| gene | TNF reporter robust z-score | outcome |
| --- | --- | --- |
| ALG8 | 0.64 | inactive |
| ALG8 | 0.38 | inactive |
| ALG8 | -0.55 | inactive |
| ALG8 | 0.4 | inactive |
| BEGAIN | 5.15 | active |
| BEGAIN | 2.52 | inactive |
| BEGAIN | 0.84 | inactive |
| BEGAIN | -0.14 | inactive |
| ADAM12 | -0.91 | inactive |
| ADAM12 | -0.69 | inactive |
| ADAM12 | -0.84 | inactive |
| ADAM12 | -0.42 | inactive |
| KRT12 | -0.9 | inactive |
| KRT12 | -0.08 | inactive |
| KRT12 | -1.05 | inactive |
| KRT12 | -1 | inactive |
| DCBLD2 | -1.16 | inactive |
| DCBLD2 | -0.63 | inactive |
| DCBLD2 | -1.01 | inactive |
| HSD17B8 | -0.77 | inactive |
| HSD17B8 | -1.15 | inactive |
| HSD17B8 | -0.01 | inactive |
| HSD17B8 | -0.82 | inactive |
| PPP1R3B | -0.48 | inactive |
| PPP1R3B | 1.06 | inactive |
| PPP1R3B | 1.82 | inactive |
| PPP1R3B | 2.45 | inactive |
| PTCD3 | -0.8 | inactive |
| PTCD3 | -0.42 | inactive |
| PTCD3 | 0.47 | inactive |
| PTCD3 | -0.45 | inactive |
| OSBPL8 | 0.13 | inactive |
| OSBPL8 | 0.49 | inactive |
| OSBPL8 | 1.5 | inactive |
| OSBPL8 | 0.33 | inactive |
| PMFBP1 | -0.61 | inactive |
| PMFBP1 | -0.08 | inactive |
| PMFBP1 | -0.54 | inactive |
| PMFBP1 | 0.32 | inactive |

Called active, of those listed so far:
| gene | TNF reporter robust z-score | outcome |
| --- | --- | --- |
| BEGAIN | 5.15 | active |

Additional results:
| gene | TNF reporter robust z-score | outcome |
| --- | --- | --- |
| PAPOLG | 2.6 | inactive |
| PAPOLG | 2.06 | inactive |
| PAPOLG | 1.46 | inactive |
| PAPOLG | 1.25 | inactive |
| TIAL1 | 0.45 | inactive |
| TIAL1 | 2.08 | inactive |
| TIAL1 | 1.02 | inactive |
| TIAL1 | 2.91 | active |
| PPIG | -0.92 | inactive |
| PPIG | -0.38 | inactive |
| PPIG | -0.29 | inactive |
| PPIG | 0.11 | inactive |
| TJAP1 | 0.07 | inactive |
| TJAP1 | 1.56 | inactive |
| TJAP1 | 0.7 | inactive |
| TJAP1 | 0.98 | inactive |
| MFSD1 | 1.91 | inactive |
| MFSD1 | -0.26 | inactive |
| MFSD1 | -0.37 | inactive |
| MFSD1 | 1.4 | inactive |
| H1-5 | -1.14 | inactive |
| H1-5 | -1.28 | inactive |
| H1-5 | -1.31 | inactive |
| H1-5 | -0.98 | inactive |
| TRAM2 | -0.15 | inactive |
| TRAM2 | 0.41 | inactive |
| TRAM2 | -0.38 | inactive |
| TRAM2 | -0.8 | inactive |
| GSTA1 | -1.5 | inactive |
| GSTA1 | -1.41 | inactive |
| GSTA1 | -0.2 | inactive |
| GSTA1 | -0.22 | inactive |
| CNTN3 | -0.7 | inactive |
| CNTN3 | 0.27 | inactive |
| CNTN3 | -0.84 | inactive |
| CNTN3 | -0.67 | inactive |
| MSRB1 | 2.3 | inactive |
| MSRB1 | 3.18 | active |
| MSRB1 | 1.9 | inactive |
| MSRB1 | 3.66 | active |
| ARHGEF28 | -1.24 | inactive |
| ARHGEF28 | -0.76 | inactive |
| ARHGEF28 | -0.92 | inactive |
| ARHGEF28 | 0.67 | inactive |
| TRAPPC12 | 0.28 | inactive |
| TRAPPC12 | 0.6 | inactive |
| TRAPPC12 | -0.27 | inactive |
| TRAPPC12 | -0.21 | inactive |
| HSF1 | 0.86 | inactive |
| HSF1 | 1.35 | inactive |
| HSF1 | 0.85 | inactive |
| HSF1 | 1.83 | inactive |
| MMP20 | -0.08 | inactive |
| MMP20 | 1.5 | inactive |
| MMP20 | 0.31 | inactive |
| MMP20 | 2.21 | inactive |
| ATP5MC2 | -0.64 | inactive |
| ATP5MC2 | -0.41 | inactive |
| ATP5MC2 | -0.11 | inactive |
| ATP5MC2 | -0.07 | inactive |
| GABRB1 | -0.31 | inactive |
| GABRB1 | -0.08 | inactive |
| GABRB1 | -0.66 | inactive |
| GABRB1 | -0.25 | inactive |
| LY6D | -0.48 | inactive |
| LY6D | 0.22 | inactive |
| LY6D | 0.98 | inactive |
| LY6D | 1.54 | inactive |
| ENGASE | -0.74 | inactive |
| ENGASE | 0.52 | inactive |
| ENGASE | -0.63 | inactive |
| ENGASE | 1.24 | inactive |
